PubChem BioAssay AID504793 – Drosophila RNAi Screening Center | 2011
The screen tested about 23,000 reagents; shown is an unselected part of those with a known target gene and a result. In the full data, 62 (0.27%) got an active call. 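Calls come from follow-up tests whose scores are not deposited, so confirmed genes may have low counts here; counts are not normalised per plate.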 Raw values are not corrected between plates. Names joined by + are all predicted targets of the reagent.

Aim: 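Knock-downs allowing continued mitosis even though DNA is damaged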 (primary screen)
Cells: Drosophila S2R+ cells
Reagents: long dsRNA against Drosophila genes, about 0.25 µg dsRNA per well
Duration: 4 days of dsRNA, then 4 hours of drug before read-out
Treatment: doxorubicin 0.5 µM for 4 hours to cause double-strand breaks, in cells also given a low, harmless dose of dsRNA against nbs to sensitise the assay
Measurement: 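Mitotic index as the number of phospho-histone H3-positive cells in each well following doxorubicin, given as raw counts without normalisation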
Scale: mitotic cells: higher = more cells in mitosis, weaker G2 arrest
Rule for the call: 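a call needs confirmation in secondary tests, with other dsRNAs and a check of mitotic timing without damage, not just a high primary count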
Meaning of the calls: active = confirmed in follow-up tests; inactive = not confirmed

gene,DRSC id,"mitotic cells, replicate 1",Call
ChT,DRSC16296,6,inactive
gol,DRSC04689,4,inactive
CG13630,DRSC14631,3,inactive
CG6023,DRSC19970,10,inactive
CG2260,DRSC18223,8,inactive
CG2260,DRSC28536,4,inactive
Kr-h2,DRSC03356,5,inactive
CG31368,DRSC14949,6,inactive
CG31368,DRSC14951,11,inactive
CG3706,DRSC18649,10,inactive
SPoCk,DRSC11675,9,inactive
SPoCk,DRSC11706,3,inactive
SPoCk,DRSC11844,1,inactive
SPoCk,DRSC11845,7,inactive
SPoCk,DRSC24007,11,inactive
Trs23,DRSC03190,6,inactive
Trs23,DRSC29243,5,inactive
CG5888,DRSC01929,8,inactive
CG5888,DRSC28190,7,inactive
DIP2,DRSC08582,1,inactive
Roc1b + Cdc5,DRSC08687,7,inactive
Roc1b + Cdc5,DRSC26879,4,inactive
CG15221,DRSC19659,9,inactive
CG10616,DRSC09750,5,inactive
SC35,DRSC03425,8,inactive
SC35,DRSC25427,6,inactive
SC35,DRSC27081,5,inactive
CG6709 + Hez,DRSC10165,4,inactive
CG6709 + Hez,DRSC10698,8,inactive
CG8939,DRSC20127,5,inactive
primo-2 + primo-1,DRSC16511,5,inactive
primo-2 + primo-1,DRSC27823,4,inactive
CG8586,DRSC07218,7,inactive
Cht7,DRSC08538,3,inactive
Cht7,DRSC21783,4,inactive
kel,DRSC03554,5,inactive
Pym,DRSC23017,12,inactive
plu,DRSC07665,1,inactive
Gem4b + Gem4c + Glos,DRSC18244,7,inactive
CG15764,DRSC18070,10,inactive
CG15764,DRSC25755,3,inactive
Sytbeta,DRSC10009,3,inactive
Sytbeta,DRSC10351,6,inactive
CdGAPr,DRSC03289,3,inactive
IntS9,DRSC10493,4,inactive
IntS9,DRSC28991,2,inactive
Mst57Da,DRSC16744,5,inactive

6 entries from above, set out differently:
| gene | DRSC id | mitotic cells, replicate 1 | Call |
| --- | --- | --- | --- |
| CG10616 | DRSC09750 | 5 | inactive |
| SC35 | DRSC03425 | 8 | inactive |
| SC35 | DRSC25427 | 6 | inactive |
| SC35 | DRSC27081 | 5 | inactive |
| CG6709 + Hez | DRSC10165 | 4 | inactive |
| CG6709 + Hez | DRSC10698 | 8 | inactive |

Additional entries:
gene,DRSC id,"mitotic cells, replicate 1",Call
CG4267,DRSC00647,7,inactive
CG4267,DRSC28673,6,inactive
CG34214,DRSC04490,2,inactive
CG15312,DRSC18000,8,inactive
CG15312,DRSC27198,8,inactive
Coop,DRSC06604,7,inactive
Coop,DRSC25252,6,inactive
CG30001,DRSC05191,5,inactive
CG12506,DRSC00347,5,inactive
Jheh1,DRSC06529,7,inactive
Jheh1,DRSC25526,9,inactive
al,DRSC00799,11,inactive
CG31482,DRSC12582,6,inactive
CG3527,DRSC18307,12,inactive
CG3527,DRSC28450,1,inactive
bru3,DRSC09280,8,inactive
bru3,DRSC09687,6,inactive
bru3,DRSC09887,6,inactive
bru3,DRSC22732,5,inactive
bru3,DRSC28166,6,inactive
CG34109,DRSC02169,2,inactive
CG34109,DRSC02224,5,inactive
CG34109,DRSC02225,5,inactive
CG34109,DRSC26977,4,inactive
CG34109,DRSC30104,3,inactive
Dic3,DRSC06058,3,inactive
ND-B22,DRSC03193,8,inactive
ND-B22,DRSC28526,10,inactive
